Measurements: PMC10256812
Positions count from the first letter of the chain named. No constants are given. Whether binding was seen depends on the method and setting. Binding seen in cells or lysates may run through a third protein. Some entries that bind do so weakly or less than the wild type. For part of these data: Sequences can lack the tags named with a protein.

Amino acid sequences for entries named in this document (tags omitted).
UniProt Q92830: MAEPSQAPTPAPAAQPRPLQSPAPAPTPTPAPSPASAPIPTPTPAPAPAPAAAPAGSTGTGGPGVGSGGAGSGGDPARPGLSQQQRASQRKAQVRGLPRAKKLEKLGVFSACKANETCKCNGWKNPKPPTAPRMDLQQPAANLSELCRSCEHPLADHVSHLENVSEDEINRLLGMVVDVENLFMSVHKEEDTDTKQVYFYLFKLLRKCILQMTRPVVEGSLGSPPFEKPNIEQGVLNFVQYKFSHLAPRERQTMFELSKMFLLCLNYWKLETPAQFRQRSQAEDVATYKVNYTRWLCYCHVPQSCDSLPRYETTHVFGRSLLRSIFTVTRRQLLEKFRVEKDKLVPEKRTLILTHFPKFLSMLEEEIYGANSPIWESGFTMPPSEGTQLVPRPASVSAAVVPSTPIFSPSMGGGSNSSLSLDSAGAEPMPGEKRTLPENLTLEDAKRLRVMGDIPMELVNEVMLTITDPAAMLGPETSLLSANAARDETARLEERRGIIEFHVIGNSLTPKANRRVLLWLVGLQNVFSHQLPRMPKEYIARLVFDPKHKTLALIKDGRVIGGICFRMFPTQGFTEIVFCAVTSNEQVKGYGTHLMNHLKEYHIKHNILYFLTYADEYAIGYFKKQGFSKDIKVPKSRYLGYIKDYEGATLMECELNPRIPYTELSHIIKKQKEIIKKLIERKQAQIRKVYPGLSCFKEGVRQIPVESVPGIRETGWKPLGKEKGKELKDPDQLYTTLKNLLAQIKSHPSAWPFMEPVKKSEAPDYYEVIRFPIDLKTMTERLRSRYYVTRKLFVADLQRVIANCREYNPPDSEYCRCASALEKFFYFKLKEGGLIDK
UniProt P10275: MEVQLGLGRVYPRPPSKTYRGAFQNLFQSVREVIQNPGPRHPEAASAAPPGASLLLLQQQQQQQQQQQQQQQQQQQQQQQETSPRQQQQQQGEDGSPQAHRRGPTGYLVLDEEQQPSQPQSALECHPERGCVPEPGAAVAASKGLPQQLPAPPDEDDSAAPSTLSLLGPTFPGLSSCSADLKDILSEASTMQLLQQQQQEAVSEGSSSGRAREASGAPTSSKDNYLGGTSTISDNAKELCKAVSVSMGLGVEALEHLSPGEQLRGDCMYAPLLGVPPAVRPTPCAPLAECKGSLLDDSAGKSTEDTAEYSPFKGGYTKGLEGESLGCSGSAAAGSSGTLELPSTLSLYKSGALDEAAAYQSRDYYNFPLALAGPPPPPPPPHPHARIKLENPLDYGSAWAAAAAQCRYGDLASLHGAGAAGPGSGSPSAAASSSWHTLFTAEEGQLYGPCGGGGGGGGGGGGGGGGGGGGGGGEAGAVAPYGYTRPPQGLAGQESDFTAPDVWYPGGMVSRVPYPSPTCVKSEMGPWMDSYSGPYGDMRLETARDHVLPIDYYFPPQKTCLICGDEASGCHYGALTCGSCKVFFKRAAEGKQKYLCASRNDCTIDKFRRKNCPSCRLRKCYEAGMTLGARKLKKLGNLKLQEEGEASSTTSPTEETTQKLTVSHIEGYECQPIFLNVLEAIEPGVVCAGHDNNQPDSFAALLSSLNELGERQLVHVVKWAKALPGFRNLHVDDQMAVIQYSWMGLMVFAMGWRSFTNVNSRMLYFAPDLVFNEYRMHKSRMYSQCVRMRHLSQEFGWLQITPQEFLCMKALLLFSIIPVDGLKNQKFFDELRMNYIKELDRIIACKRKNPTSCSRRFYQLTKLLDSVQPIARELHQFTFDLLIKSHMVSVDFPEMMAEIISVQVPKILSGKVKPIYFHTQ

Assays:
[1] = molecular target: T1, HA-tagged SREBF1 (wild type), expressed in C4-2B cells (UniProt P36956); assay: co-IP; C4-2B cells infected with HA-tagged SREBF1 or Y673/951A constructs, in the presence of abiraterone; lysates immunoprecipitated with anti-HA affinity gel, immunoblot with KAT2A antibody
T1 sequence: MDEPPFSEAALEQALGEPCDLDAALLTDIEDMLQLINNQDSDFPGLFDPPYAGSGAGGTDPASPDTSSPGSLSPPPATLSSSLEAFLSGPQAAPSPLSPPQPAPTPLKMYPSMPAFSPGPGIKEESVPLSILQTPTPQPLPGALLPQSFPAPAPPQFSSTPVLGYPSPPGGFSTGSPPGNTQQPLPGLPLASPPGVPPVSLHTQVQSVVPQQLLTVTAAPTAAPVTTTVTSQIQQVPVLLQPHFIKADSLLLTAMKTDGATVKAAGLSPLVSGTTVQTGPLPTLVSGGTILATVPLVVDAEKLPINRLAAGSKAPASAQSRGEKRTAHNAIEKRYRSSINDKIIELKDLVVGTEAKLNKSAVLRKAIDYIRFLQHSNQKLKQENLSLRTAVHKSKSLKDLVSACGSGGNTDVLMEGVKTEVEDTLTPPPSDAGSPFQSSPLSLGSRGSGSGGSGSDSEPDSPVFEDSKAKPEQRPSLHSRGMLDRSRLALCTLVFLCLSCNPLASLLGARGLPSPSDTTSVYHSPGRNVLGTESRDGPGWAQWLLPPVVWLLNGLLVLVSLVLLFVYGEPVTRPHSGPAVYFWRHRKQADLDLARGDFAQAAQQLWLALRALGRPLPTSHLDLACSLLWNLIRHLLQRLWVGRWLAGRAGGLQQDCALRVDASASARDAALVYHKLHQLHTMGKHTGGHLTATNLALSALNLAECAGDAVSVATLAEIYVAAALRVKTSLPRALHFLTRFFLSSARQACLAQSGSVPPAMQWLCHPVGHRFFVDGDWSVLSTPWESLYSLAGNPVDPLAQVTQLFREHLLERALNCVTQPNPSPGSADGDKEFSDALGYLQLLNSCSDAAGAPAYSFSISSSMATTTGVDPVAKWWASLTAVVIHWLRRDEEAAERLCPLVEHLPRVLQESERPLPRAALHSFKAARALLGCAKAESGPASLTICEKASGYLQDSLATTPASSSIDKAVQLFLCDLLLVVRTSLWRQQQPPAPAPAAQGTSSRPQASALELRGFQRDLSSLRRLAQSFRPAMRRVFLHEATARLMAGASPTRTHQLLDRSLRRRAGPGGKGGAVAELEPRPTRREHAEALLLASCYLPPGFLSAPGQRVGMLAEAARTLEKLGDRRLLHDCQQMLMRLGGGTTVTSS

[2] = molecular target: T2, sterol regulatory element-binding protein 1 (SREBF1), endogenous (human (endogenous in C4-2B, LAPC4, VCaP, HEK293T)) (UniProt P36956); assay: co-IP; C4-2B and LAPC4 cells treated with abiraterone (7.5 uM); lysates (RLB: 20 mM HEPES pH 7.5, 500 mM NaCl, 1% Triton X-100) immunoprecipitated with SREBF1 antibody, immunoblot with KAT2A antibody; both endogenous
T2 sequence: T1 sequence

[3] = molecular target: T3, His-tagged SREBF1 Y673/951A double mutant, expressed in HEK293T cells (UniProt P36956); assay: co-IP; HEK293T cells transfected with FLAG-tagged AR and His-tagged SREBF1 or Y673/951A, DHT treatment; lysates precipitated with Ni-NTA beads (His), immunoblot with FLAG antibody
T3 sequence: T1 sequence with Y673A, Y951A

binding [1] | binding [2] | binding [3] | Substance
binds | binds | – | KAT2A/GCN5, endogenous (from UniProt Q92830 1-837) (enzyme)
– | – | binds | FLAG-tagged androgen receptor (AR) (from UniProt P10275 1-920)
